Laboratory results published in PubChem BioAssay AID493014 (National Center for Advancing Translational Sciences (NCATS), 2011).
The list shows a part of the results. Further columns of the screen follow, without active or inactive calls. Compounds called inactive in the main read-out are mostly missing here. Potencies come from curve fits of mixed quality, noted in brackets.

Assay: qHTS Assay to Find Inhibitors of Chronic Active B-Cell Receptor Signaling
Details: ABC-DLBCL IkBa-CBG/CBR reporter, luminescence ratio (green luciferase fused to IkBa over red control in TMD8 lymphoma cells), 4 h; measured here: CBR red luminescence, cell number
How it was run: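 TMD8 human ABC-DLBCL cells with doxycycline-inducible IκBα–green luciferase fusion and unfused red luciferase, in 0.5% FBS medium; compounds up to 46 uM, 4 h at 37C. Green/red luminescence ratio, filter-overlap corrected, fitted to concentration-response curves.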

SMILES | AC50
COc1ccc(CCn2ccc(O)c(Cc3ccc(Cl)cc3)c2=O)cc1OC | 25.1 µM [falling, single point]
Cn1c(=O)c2ncn(CC(=O)O)c2n(C)c1=O | 35.5 µM [rising, single point]
CN1CCC(N(C)C(=O)c2ccc(Cl)c(S(=O)(=O)Nc3cc(Cl)ccc3Cl)c2)CC1 | 25.9 µM [falling, single point]
O=C(CSc1nnc(Cc2cccs2)n1Cc1ccco1)Nc1cc(Cl)cc(Cl)c1 | 17.8 µM [falling, single point]
CN(C)S(=O)(=O)c1cccc(C(=O)OCC(=O)c2c(N)n(C)c(=O)n(C)c2=O)c1 | 5.01 µM [rising, partial curve, poor fit]
O=[N+]([O-])c1ccc(S(=O)(=O)Nc2ccc(-c3csc(-c4ccccc4)n3)cc2)cc1 | 14.1 µM [falling, partial curve]
Cc1cccc(/C=C/C(=O)c2cc(Br)ccc(=O)c2O)c1 | 13 µM [falling, partial curve, poor fit]
C=CCOC(=O)C(C#N)c1nc2ccccc2nc1N1CCC(C(=O)OCC)CC1 (stereo unspecified) | 18.4 µM [falling, single point]
CCOc1ccccc1C(=O)Nc1cc(C(=O)NCCc2ccccc2)ccc1Cl | 3.16 µM [rising, single point]
COc1cc(/C=N/NC(=O)c2ccncc2)ccc1O | 17.8 µM [falling, partial curve, poor fit]
CN(C(=O)c1ccc(NC(=O)C2CC=CCC2C(=O)O)cc1)c1ccccc1 (stereo unspecified) | 2.06 µM [rising, partial curve, poor fit]
CC1CN(Cc2cn(C)nc2-c2ccc(Oc3ccccc3)cc2)CCN1C (stereo unspecified) | 35.5 µM [falling, single point]
COc1cc([N+](=O)[O-])ccc1NC(=O)Cc1ccc(F)cc1 | 23.1 µM [rising, partial curve, poor fit]
CC[C@H]1OC(=O)C[C@@H](O)[C@H](C)[C@@H](O[C@@H]2O[C@H](C)C[C@H](N(C)C)[C@H]2O)[C@@H](CC=O)C[C@@H](C)C(=O)C=C[C@]2(C)O[C@H]2[C@@H]1C | 12.6 µM [falling, partial curve, poor fit]
Nn1cc(-c2ccccc2)nc1SCC(=O)N1CCN(S(=O)(=O)c2ccc3ccccc3c2)CC1 | 1.03 µM [rising, full curve, poor fit]
C/C(=N\NC(=O)c1ccn(C)n1)c1ccc(NC(=O)c2cccc(F)c2)cc1 | 11.2 µM [falling, partial curve]
COCC(C)NC(=O)c1noc2c1CCc1cc(OC)ccc1-2 (stereo unspecified) | 16.4 µM [falling, partial curve]
O=C(O)CC1(CC(=O)Nc2ccc(C(F)(F)F)cc2)CCCC1 | 0.112 µM [rising, full curve, poor fit]
CCC(C)(C)NC(=O)C(c1cccn1C)N(Cc1ccccc1)C(=O)Cn1nnc2ccccc21 (stereo unspecified) | 7.94 µM [rising, partial curve, poor fit]
COc1cc(C(=O)OCC(=O)N2CCCC2)cc2c1OCCO2 | 18.4 µM [falling, partial curve, poor fit]
COc1cccc(C2=CC(c3cccc(OC)c3OC(F)F)n3nnnc3N2)c1 (stereo unspecified) | 13 µM [falling, single point]

SMILES | AC50
Cc1ccccc1CN1CCN(c2nc3ccccc3s2)CC1 | 7.08 µM [rising, partial curve]
COc1ccc(CNC(=O)COC(=O)c2n[nH]c3ccccc23)cc1 | 10 µM [falling, partial curve]
Cc1c(CCOC(=O)C23CC4CC(CC(C)(C4)C2)C3)sc[n+]1CC(=O)c1ccccc1 | 3.16 µM [rising, partial curve]
CCOC(=O)C1CCN(Cc2ccc(OCc3ccccc3)cc2)CC1 | 35.5 µM [rising, single point]
CCOC(=O)N1CCN(c2ccc(S(=O)(=O)N3CCOCC3)cc2[N+](=O)[O-])CC1 | 0.731 µM [rising, partial curve, poor fit]
COc1ccccc1/C(C)=N/Oc1cc(N)cc([N+](=O)[O-])c1 | 29.1 µM [rising, single point]
CCOc1cc(/C=N\NC(=O)OC(C)(C)C)ccc1OC(=O)c1ccco1 | 5.62 µM [rising, single point]
NC(=O)c1ccc(N=Nc2c(-c3ccccc3)[nH]n(-c3ccccc3)c2=O)cc1 | 3.55 µM [falling, partial curve]
CCC(=O)c1ccccc1OCCCN1CCC(Cc2ccccc2)CC1 | 6.31 µM [falling, partial curve]
COc1cc(OC)c2c(-c3cccc(-c4ccc(C(F)(F)F)cc4)c3)cc(=O)oc2c1 | 18.4 µM [rising, partial curve, poor fit]
CN(C)CCC(c1ccc(Br)cc1)c1ccccn1 (stereo unspecified) | 10 µM [falling, partial curve]
CCN1CCN(CCCNC(=O)c2cc3c(=O)[nH]c4ccccc4c3s2)CC1 | 29.1 µM [falling, single point]
CN1C(=O)/C(=C/c2cn(CC(=O)N3CCCCC3)c3ccccc23)NC1=S | 3.16 µM [falling, full curve]
Cc1ccc2nc(SCC(=O)Nc3c(C)n(C)n(-c4ccccc4)c3=O)[nH]c2c1 | 1.84 µM [falling, full curve, poor fit]
COc1cc2c(cc1OC)C(C)N(C(=O)c1cc3c(=O)oc4ccc(C)cc4c3s1)CC2 (stereo unspecified) | 0.651 µM [rising, partial curve, poor fit]
Cc1ccc(-c2nc(CSc3nc4ccccc4c(=O)n3CCO)cs2)cc1 | 23.1 µM [falling, single point]
CC1CC(C)(C)NC(=S)N1CCCC(=O)Nc1ccc(F)c(F)c1 (stereo unspecified) | 10 µM [rising, partial curve, poor fit]
Cc1cc(C)c(S(=O)(=O)N2CCCCC2CCNC(=O)C(=O)NCc2ccccn2)c(C)c1 (stereo unspecified) | 2.91 µM [falling, full curve]
COc1cc(/C=N\NC(=O)c2ccc(-c3ccccc3)cc2)cc(OC)c1O | 25.1 µM [falling, single point]
O=C(N/N=C/C(Cl)=C/c1ccc([N+](=O)[O-])cc1)C(=O)Nc1cccc(C(=O)O)c1 | 7.08 µM [falling, partial curve, poor fit]
O=C(Nc1ccccc1SCC1CSc2nc3ccccc3c(=O)n21)c1ccccc1 (stereo unspecified) | 25.9 µM [falling, partial curve, poor fit]

SMILES | AC50
CC(C)NC(=O)C1CCN(C2CCN(CC3CC=CCC3)CC2)CC1 (stereo unspecified) | 11.2 µM [rising, partial curve, poor fit]
CCc1ccc(NC(=O)COc2ccc(F)cc2C(=O)c2cnn(-c3ccccc3)c2)cc1 | 25.9 µM [rising, single point]
CCC/C(=C1/c2ccccc2C(=O)N1c1ccccc1)c1ccc2[nH]ccc2c1 | 14.6 µM [falling, partial curve, poor fit]
COc1ccccc1N(CC(=O)Nc1ccc2c(c1)OCCO2)S(=O)(=O)c1ccc(C)cc1 | 25.1 µM [falling, partial curve, poor fit]
CCOc1ccc(NC(=O)N[C@@H](CCSC)C(=O)OC)cc1 | 23.1 µM [rising, single point]
CCN(CC)S(=O)(=O)c1cccc(NC(=O)Nc2cccc(C(F)(F)F)c2)c1 | 8.2 µM [falling, partial curve, poor fit]
Cc1ccc(CNC(=O)C2CCC(=O)N(CCCN3CCOCC3)C2)cc1 (stereo unspecified) | 12.6 µM [rising, partial curve]
COc1ccc(S(=O)(=O)Cc2ccc(C(=O)NC3CCCC3)o2)cc1 | 2.91 µM [rising, single point]
Cc1nc(N2CCOCC2)nc(Oc2ccccc2F)c1[N+](=O)[O-] | 31.6 µM [falling, single point]
Cc1cc(C)nc(N(C#N)CC(=O)N2CCC(C(N)=O)CC2)n1 | 29.1 µM [rising, single point]
COC(=O)c1c(C)n(-c2ccc(OC)cc2)c2ccc(O)cc12 | 29.1 µM [falling, single point]
CN1CCN(CCCC(=O)c2ccc(C3CCCC3)cc2)CC1 | 2.59 µM [rising, partial curve, poor fit]
CCOc1ccc(-c2nnc(SCC(=O)Nc3ccc4c(c3)c3ccccc3n4CC)n2N)cc1 | 3.16 µM [rising, full curve]
COc1ccc(N2COC3c4cccc5cccc(c45)C32)cc1 (stereo unspecified) | 2.91 µM [falling, partial curve]
COc1ccc(CC(=O)OCn2nnc3ccccc3c2=O)cc1 | 20.6 µM [falling, single point]
Cc1cccc2cc(CN(CCCO)C(=O)Nc3ccccc3Cl)c(=O)[nH]c12 | 25.9 µM [falling, single point]
Cc1ccc(Nc2nc3ccccc3n3cnnc23)cc1Cl | 0.562 µM [rising, full curve, poor fit]
CCN1CCN(Cc2ccc(NC(=O)c3ccc(C)c(NC(=O)c4ccnnc4)c3)cc2C(F)(F)F)CC1 | 11.2 µM [falling, partial curve, poor fit]
COc1cc(/C=C2\SC(=S)N(CC(=O)Nc3cccnc3)C2=O)cc(OC)c1OC | 0.82 µM [rising, partial curve]

In the list so far, 2 contain bromine.
SMILES | AC50
Cc1cccc(/C=C/C(=O)c2cc(Br)ccc(=O)c2O)c1 | 13 µM [falling, partial curve, poor fit]
CN(C)CCC(c1ccc(Br)cc1)c1ccccn1 (stereo unspecified) | 10 µM [falling, partial curve]
